Laboratory results: article doi:10.1101/436147
These are yes or no findings as the source states them, for the method shown. For part of these data: In cells and extracts the contact can be indirect. Some results given as binding are weak or reduced against the parent protein; the word gives no strength. For part of these data: Tags and fused reporters may be left off the sequences shown. Blank lines part the entries; values can stand above or below the molecule they belong to.

Sequences of proteins named here, by UniProt entry; tags and fusion partners are left off. Residues count along the entry.
UniProt Q17963, whole entry: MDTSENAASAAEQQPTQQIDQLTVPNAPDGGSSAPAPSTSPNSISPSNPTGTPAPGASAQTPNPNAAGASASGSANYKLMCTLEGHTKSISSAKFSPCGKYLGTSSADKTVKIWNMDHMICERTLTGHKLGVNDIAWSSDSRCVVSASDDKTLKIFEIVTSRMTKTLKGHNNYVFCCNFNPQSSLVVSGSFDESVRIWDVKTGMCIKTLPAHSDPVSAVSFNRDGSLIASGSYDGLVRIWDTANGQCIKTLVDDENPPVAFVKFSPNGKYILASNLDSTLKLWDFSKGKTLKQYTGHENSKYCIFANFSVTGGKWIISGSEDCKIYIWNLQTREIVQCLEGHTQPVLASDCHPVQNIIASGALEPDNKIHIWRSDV
UniProt A5JYW9, whole entry: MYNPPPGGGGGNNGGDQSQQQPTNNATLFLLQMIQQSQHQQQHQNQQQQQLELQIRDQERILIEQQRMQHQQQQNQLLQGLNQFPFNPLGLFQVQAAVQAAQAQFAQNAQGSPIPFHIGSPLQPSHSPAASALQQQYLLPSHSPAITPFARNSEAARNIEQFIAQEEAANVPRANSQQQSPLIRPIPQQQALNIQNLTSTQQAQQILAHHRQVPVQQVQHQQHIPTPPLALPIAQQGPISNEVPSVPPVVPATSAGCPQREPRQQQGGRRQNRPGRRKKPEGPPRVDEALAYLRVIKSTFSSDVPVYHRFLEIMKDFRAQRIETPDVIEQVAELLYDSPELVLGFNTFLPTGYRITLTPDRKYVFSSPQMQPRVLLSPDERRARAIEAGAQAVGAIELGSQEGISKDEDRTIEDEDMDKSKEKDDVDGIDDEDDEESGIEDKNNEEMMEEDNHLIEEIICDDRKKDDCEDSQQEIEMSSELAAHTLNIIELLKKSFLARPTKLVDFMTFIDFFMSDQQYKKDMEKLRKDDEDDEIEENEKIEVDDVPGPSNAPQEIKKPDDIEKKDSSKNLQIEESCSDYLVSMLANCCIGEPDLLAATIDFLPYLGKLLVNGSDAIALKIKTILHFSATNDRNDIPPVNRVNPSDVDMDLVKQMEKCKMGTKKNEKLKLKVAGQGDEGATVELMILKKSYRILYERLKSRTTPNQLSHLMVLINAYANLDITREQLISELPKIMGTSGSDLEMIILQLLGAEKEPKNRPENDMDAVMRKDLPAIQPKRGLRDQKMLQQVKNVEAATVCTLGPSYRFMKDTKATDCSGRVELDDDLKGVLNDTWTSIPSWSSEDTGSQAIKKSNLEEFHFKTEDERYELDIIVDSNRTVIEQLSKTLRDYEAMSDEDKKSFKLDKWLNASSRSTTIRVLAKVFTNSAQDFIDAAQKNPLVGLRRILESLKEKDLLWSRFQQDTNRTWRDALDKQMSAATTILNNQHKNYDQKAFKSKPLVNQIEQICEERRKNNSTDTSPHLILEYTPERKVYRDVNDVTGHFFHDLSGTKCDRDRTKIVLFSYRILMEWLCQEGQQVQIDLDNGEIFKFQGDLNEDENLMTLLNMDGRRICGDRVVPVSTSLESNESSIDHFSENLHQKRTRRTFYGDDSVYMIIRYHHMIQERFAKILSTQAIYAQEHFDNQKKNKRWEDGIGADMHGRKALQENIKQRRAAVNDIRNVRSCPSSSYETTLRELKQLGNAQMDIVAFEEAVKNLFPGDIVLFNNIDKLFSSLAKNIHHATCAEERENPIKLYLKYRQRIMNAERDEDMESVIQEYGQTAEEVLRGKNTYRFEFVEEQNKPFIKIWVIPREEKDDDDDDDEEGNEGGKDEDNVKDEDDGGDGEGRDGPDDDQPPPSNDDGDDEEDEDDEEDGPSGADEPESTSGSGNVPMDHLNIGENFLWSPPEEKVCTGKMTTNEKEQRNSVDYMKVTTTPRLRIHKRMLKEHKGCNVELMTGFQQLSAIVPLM
UniProt A5JYW9, 1-738: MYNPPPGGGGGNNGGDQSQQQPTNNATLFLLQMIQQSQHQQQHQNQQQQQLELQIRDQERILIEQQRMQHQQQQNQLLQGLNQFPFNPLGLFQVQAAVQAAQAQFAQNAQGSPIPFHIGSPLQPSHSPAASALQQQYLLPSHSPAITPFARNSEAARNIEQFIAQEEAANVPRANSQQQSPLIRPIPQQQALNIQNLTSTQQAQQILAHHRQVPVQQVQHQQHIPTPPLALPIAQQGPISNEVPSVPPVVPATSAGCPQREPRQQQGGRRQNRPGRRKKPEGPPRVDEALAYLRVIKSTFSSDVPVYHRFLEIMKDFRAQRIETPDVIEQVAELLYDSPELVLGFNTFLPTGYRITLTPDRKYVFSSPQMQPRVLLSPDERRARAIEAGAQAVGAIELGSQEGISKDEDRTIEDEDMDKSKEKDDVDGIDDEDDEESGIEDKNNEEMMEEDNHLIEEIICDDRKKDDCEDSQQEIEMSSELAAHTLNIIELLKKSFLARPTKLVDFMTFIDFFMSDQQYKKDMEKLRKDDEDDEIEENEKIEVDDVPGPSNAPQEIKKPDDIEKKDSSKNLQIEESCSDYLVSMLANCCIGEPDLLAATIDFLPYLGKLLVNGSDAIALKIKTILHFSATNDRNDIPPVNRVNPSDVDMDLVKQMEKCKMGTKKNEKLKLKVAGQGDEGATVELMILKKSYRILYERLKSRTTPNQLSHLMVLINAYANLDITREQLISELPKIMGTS
UniProt O17695, whole entry: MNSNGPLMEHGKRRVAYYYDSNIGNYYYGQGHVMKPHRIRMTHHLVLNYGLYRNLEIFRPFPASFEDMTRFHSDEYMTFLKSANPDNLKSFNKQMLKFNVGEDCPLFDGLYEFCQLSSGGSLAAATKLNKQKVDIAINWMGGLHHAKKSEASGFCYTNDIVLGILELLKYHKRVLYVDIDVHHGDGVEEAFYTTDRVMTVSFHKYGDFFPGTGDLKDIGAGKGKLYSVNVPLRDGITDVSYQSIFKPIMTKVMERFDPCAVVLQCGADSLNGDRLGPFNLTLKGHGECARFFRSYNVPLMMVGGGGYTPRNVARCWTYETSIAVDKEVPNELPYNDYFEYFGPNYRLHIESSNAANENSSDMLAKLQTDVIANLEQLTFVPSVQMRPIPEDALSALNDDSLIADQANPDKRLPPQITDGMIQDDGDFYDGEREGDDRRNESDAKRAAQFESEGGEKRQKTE

Assays:
CFP-1::GFP (C. elegans) = molecular target: T1, CFP-1::GFP (C. elegans) (UniProt Q9XUE7); test: co-IP
T1 sequence: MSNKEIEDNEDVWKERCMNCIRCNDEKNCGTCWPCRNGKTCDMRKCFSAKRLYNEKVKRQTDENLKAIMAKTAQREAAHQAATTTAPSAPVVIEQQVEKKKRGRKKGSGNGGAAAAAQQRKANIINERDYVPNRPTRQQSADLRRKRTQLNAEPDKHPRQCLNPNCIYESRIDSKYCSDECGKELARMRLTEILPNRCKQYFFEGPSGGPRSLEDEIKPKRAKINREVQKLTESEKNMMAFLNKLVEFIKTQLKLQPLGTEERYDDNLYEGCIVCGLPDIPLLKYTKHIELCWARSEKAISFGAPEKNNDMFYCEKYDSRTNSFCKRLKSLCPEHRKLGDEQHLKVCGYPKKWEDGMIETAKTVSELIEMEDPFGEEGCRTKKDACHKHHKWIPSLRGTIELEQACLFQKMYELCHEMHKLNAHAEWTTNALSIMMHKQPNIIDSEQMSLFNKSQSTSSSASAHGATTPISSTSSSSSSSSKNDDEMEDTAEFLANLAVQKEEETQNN

HA::WDR-5.1 (C. elegans) = HA::WDR-5.1 (C. elegans) (UniProt Q17963); test: co-IP
GST::CFP-1 (C. elegans) = GST::CFP-1 (C. elegans) (UniProt Q9XUE7); test: pull-down
[1] = molecular target: SIN-3, full length, two-hybrid fusion (C. elegans) (UniProt A5JYW9); test: two-hybrid
[2] = molecular target: CFP-1, full length, two-hybrid fusion (C. elegans) (UniProt Q9XUE7); test: two-hybrid
[3] = molecular target: MRG-1, full length, two-hybrid fusion (C. elegans) (UniProt A7DTF0); test: two-hybrid

binding (CFP-1::GFP (C. elegans)): binds
Molecule: SIN-3 (from UniProt A5JYW9 1-1507)

binding (CFP-1::GFP (C. elegans)): binds
binding (HA::WDR-5.1 (C. elegans)): binds
Molecule: HDA-1 (from UniProt O17695 1-461)

Molecule: HIS6::SIN-3 N-terminal domain (aa 1-738) (from UniProt A5JYW9 1-738) (domain or fragment)
binding (GST::CFP-1 (C. elegans)): binds

binding (CFP-1::GFP (C. elegans)): binds
Molecule: HA::WDR-5.1 (from UniProt Q17963 1-376)

binding [1]: binds
binding [2]: binds
B1: CFP-1, full length, two-hybrid fusion (protein, UniProt Q9XUE7 1-508)
chain: T1 sequence

binding (HA::WDR-5.1 (C. elegans)): binds
B2: CFP-1::GFP (protein, UniProt Q9XUE7 1-508)
chain: T1 sequence

binding (CFP-1::GFP (C. elegans)): binds
binding (HA::WDR-5.1 (C. elegans)): binds
B3: ASH-2 (protein, UniProt G5EFZ3 1-570)
chain: MRSSKGGRGRQAAPKTAPTTVCYCDGKRELGSVEVVCSTCLKWFHGRCLKEFHELNSNGVPFMICYTFTCKQCRPTAEDWKAKKADLVQMCVTVLATLSAERLKADGKLSAEHVPEDFTYLSLKDEIVPYMNENWYMLTAIKQKKEWHQNLAPTLLKEKNIFVQHNDDDDLFALAEKNLSLLGPLHEAVKLIGKRPIERENREPRHIELPPIEGPKTRGASKRRHAEAPVTGKKQKLAADYSSTAAPNGVQIDIPFSKDNYRYYLTEVDPNVPEDPAWNQNQSSAYVIPSFHYRELLNPTVNVSSNDRAFQLSINGNSITGFEGYSMARASHGVSKGTWYFEVNFDDQPDDSHIRIGWSQSYASLQACVGYNKFSYGWRSKHGTKFHEAKGKKYHFGGFKQGDVLGCLIHLPVDKKLQIPANLPSEKYLPVSHKGFNLISFKANYFFEVQEESADIAKTLVEMPGSYIEFFHNGKSCGKAYENIYAGAYYPSISIFKSATATMNLGPKFRNLPRGATGIHARADEQQHEQTLSDMLYLVSKEVNLDHPPRVKREDDDDVKDIKKEIKQEI

binding (CFP-1::GFP (C. elegans)): binds
B4: MRG-1 (protein, UniProt A7DTF0 1-337)
chain: MSSKKNFEVGENVACIYKGKPYDAKITDIKTNSDGKELYCVHFKGWNNRYDEKIPVGEEKDRIFKGTASEYAEKHNAELPTTALKPKKKSLAAEAPRDDRDDTPGTSKGKKAKSVTIAPVMTADDMKVELPKPLRKILIDDYDLVCRYFINIVPHEYSVDQIIEDYIKTIPVSNEQMRTVDDLLIEYEEADIKITNLALICTARGLVDYFNVTLGSSYQLLYKFERPQYNDLVKKRAMEKGIDITNPTALQDSGFRPSQEYGIVHFLRMLAKLPDYLKLTQWNDHVINRIMIGVHDLIVFLNKNHGKYYRGSSDYQGASNDYYRRSLAADDGVGANQ

binding [3]: binds
B5: MRG-1, full length, two-hybrid fusion (protein, UniProt A7DTF0 1-337)
chain: B4 chain
